{"source": "patent US20150185241A1", "about": "“Tilidine Immunodetection” (Randox Laboratories Limited, priority 2013, published 2015)", "system": "tilidine-specific antibody raised from Immunogen-II", "experiment": "Competitive ELISA (Example 7): Ig fraction of antiserum raised to Immunogen II, hapten-HRP conjugate of Example 6 as detecting agent", "format": "binding", "method": "The wells of an enhanced binding 96 well polystyrene microtitre plate were coated with the Ig fraction of the antiserum raised to Immunogen II (N-(carboxypropyl)nortilidine-BTG—example 5), diluted in 10 mMTris, pH 8.5 (125 μl/well). The appropriate antibody coating dilution was determined using standard ELISA checkerboard techniques. The plate was incubated for 2 hours at 37° C., washed 4 times over 10 minutes with Tris buffered saline, containing Tween 20 (TBST) and tapped dry. Standard solutions of tilidine hydrochloride (a mixture of the two trans isomers—the 1R, 2S and the 1S, 2R trans isomers) and nortilidine hydrochloride (a mixture of the two trans isomers—the 1R, 2S and the 1S, 2R trans isomers) were prepared in TBST at 0, 0.625 ng/ml, 1.25 ng/ml, 2.5 ng/ml, 5 ng/ml, 10 ng/ml, 20 ng/ml and 40 ng/ml and 50 μl of each was added to the appropriate wells. 75 μl of conjugate of example 6 (hapten-HRP), diluted in Tris buffer (pH7.2) containing EDTA, D-mannitol, sucrose, thimerosal and BSA was added to each of the wells. The appropriate dilution of conjugate was also determined using standard ELISA checkerboard techniques. The plate was incubated at 25° C. for 1 hour. Excess unbound conjugate was removed by washing 6 times over a 10-15 minute period with TBST. 125 μl of tetramethylbenzidine (TMB) substrate solution was added to each well of the plate that was then incubated for 20 minutes in the dark at room temperature. The reaction was terminated by the addition of 125 μl of 0.2M H2SO4 to each well. The absorbance was then measured at 450 nm using a microtitre plate reader.", "note": "Where a name gives a salt, the structure may show the parent alone. At least one compound was matched to its structure with a doubt left."}
{"smiles": "CCOC(=O)[C@]1(c2ccccc2)CCC=C[C@H]1NC", "note": "(racemic) [Nortilidine HCl, (±)-trans-ethyl 2-(N-methylamino)-1-phenylcyclohex-3-enylcarboxylate]", "values": [{"measurement": "% cross-reactivity", "setting": "relative to tilidine HCl = 100, Ig fraction of Example 7", "result": 21.36, "unit": "%"}, {"measurement": "% B/Bo", "setting": "standard 0.625 ng/ml", "result": 79, "unit": "%"}, {"measurement": "% B/Bo", "setting": "standard 1.250 ng/ml", "result": 73, "unit": "%"}, {"measurement": "% B/Bo", "setting": "standard 2.500 ng/ml", "result": 65, "unit": "%"}, {"measurement": "% B/Bo", "setting": "standard 5.000 ng/ml", "result": 58, "unit": "%"}, {"measurement": "% B/Bo", "setting": "standard 10.000 ng/ml", "result": 48, "unit": "%"}, {"measurement": "% B/Bo", "setting": "standard 20.000 ng/ml", "result": 37, "unit": "%"}, {"measurement": "% B/Bo", "setting": "standard 40.000 ng/ml", "result": 27, "unit": "%"}, {"measurement": "IC50", "setting": "standard concentration which produces 50% B/Bo, Ig fraction of Example 7", "result": 8.522, "unit": "ng/mL"}]}
